In publication PMC7819943, “Rice protein-binding microarrays: a tool to detect cis-acting elements near promoter regions in rice”:
The other results are listed elsewhere or left out.

Molecular target: T1, OsSMF1 (Oryza sativa, UniProt Q6ZLB0 1-436)
T1 sequence: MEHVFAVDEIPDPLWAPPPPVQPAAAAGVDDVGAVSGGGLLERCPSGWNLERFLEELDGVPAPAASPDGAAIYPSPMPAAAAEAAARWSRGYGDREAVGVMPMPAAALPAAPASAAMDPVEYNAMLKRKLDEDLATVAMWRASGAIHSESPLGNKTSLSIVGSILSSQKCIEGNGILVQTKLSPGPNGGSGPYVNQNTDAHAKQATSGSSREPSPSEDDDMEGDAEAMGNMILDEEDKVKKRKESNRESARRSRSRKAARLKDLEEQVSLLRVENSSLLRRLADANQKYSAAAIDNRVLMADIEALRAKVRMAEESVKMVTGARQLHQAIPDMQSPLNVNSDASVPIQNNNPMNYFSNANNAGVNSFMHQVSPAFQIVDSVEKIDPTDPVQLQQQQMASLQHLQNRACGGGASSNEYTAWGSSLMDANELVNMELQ
Experiment: protein-binding microarray (RPBM); PBS, 2% BSA, 51.3 ng/ul salmon testes DNA, 50 uM zinc acetate, 200 nM TF, 25 C, 1 h; high values mean tight binding
Conditions: protein: recombinant; tags: N-terminal polyhistidine and DsRed monomer fusion (pET32a); chain copies: 2; label: CyDye5-dUTP incorporated in the synthesized complementary strand; 3' TTTTT single-stranded linker to array surface; dsDNA, one strand shown
Procedure, shortened: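 The binding signal is fluorescence intensity per array feature (arbitrary units). Readings came from an Axon 4000B scanner after a washed, 2% BSA-blocked, double-stranded custom Agilent array had been incubated for 1 h at 25 °C with 200 nM protein and 50 µM zinc acetate. The protein was a Ni–NTA-purified transcription factor fused N-terminally to polyhistidine and DsRed, expressed in E. coli BL21-CodonPlus.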

Sequence | binding signal
GGTGGGTGCGCCTCGTGTACGCCGACTTCGCCGCCTTCTCCGGAGTCACCTAGTGCAG | 4420 fluorescence intensity (a.u.)
GGAAGAAGGCCGCCGACGCACAACAGAGGCGGCGGCGGGGCGGAGTCACCTAGTGCAG | 3510 fluorescence intensity (a.u.)
TTGTGAGCTCGGGATCTGTCCGCAGCCCAACATGACTGTACGGAGTCACCTAGTGCAG | 3820 fluorescence intensity (a.u.)
ATCGCCACACCGACCGGATACGTGGAATGAAACCCAAACCCGGAGTCACCTAGTGCAG | 3530 fluorescence intensity (a.u.)
TTGTGAAGTGATATATTACATATTAACCTATCATGTCAATCGGAGTCACCTAGTGCAG | 38100 fluorescence intensity (a.u.)
ACAAGGTTACAGACGTGTCACGTGCGCGCGCGCATCTCTCCGGAGTCACCTAGTGCAG | 6070 fluorescence intensity (a.u.)
CAACAATTTCCTCTCCTGTCAATGAACTTGTGTGCACGACCGGAGTCACCTAGTGCAG | 21900 fluorescence intensity (a.u.)
CTGGACCCATATTTCATAGACACAGATGGGCCCATTTATCCGGAGTCACCTAGTGCAG | 8190 fluorescence intensity (a.u.)
TGTTGCACGGACATTTTGTCTATGACGCGGTAAGAGGGAGCGGAGTCACCTAGTGCAG | 3260 fluorescence intensity (a.u.)
CCAGAATCCAAATGGGCCGTCTCTCTTCGTCTGGGCCCATCGGAGTCACCTAGTGCAG | 4820 fluorescence intensity (a.u.)
TCCTGTCCTTCTTTCTCTTCAAGTCCTTCCTCTTCACTCCCGGAGTCACCTAGTGCAG | 65500 fluorescence intensity (a.u.)
GATTCACTAAGACTGAAATAAAGCATTGGGTCGAACTCTTCGGAGTCACCTAGTGCAG | 3900 fluorescence intensity (a.u.)
GTCATACACATACAACTTTTCAGTCACATCATCTCCAATTCGGAGTCACCTAGTGCAG | 3150 fluorescence intensity (a.u.)
TACACTGGTGGATGTGAATCATTGGAATGCATGCCTCCTGCGGAGTCACCTAGTGCAG | 3810 fluorescence intensity (a.u.)
TGGCTTGAAAGTCACACCGTGAGTCAGACGATCCGCGTCCCGGAGTCACCTAGTGCAG | 8380 fluorescence intensity (a.u.)
TATGCATGACATCACAACGAAAGCTGGGACCTCGTCGATCCGGAGTCACCTAGTGCAG | 3600 fluorescence intensity (a.u.)
TCGCTCTCTCCACATCGGTCGTGCGGTCGTGCCGCCATCACGGAGTCACCTAGTGCAG | 3460 fluorescence intensity (a.u.)
TCTCCCTGTTGCAGCACCTACGTGTAGTTTAGCTGCATCTCGGAGTCACCTAGTGCAG | 4420 fluorescence intensity (a.u.)
TTTTGTCATTGCCGACTGATGCTTAATCACATTGTTGCGCCGGAGTCACCTAGTGCAG | 3340 fluorescence intensity (a.u.)
CTGTCGTCACCATGACACGTCATCAGTCGTTAGGGTCGGCCGGAGTCACCTAGTGCAG | 25600 fluorescence intensity (a.u.)
TAAGATAAAGAAAGGAGGTCAGTGAGTCAGCAGAGTACCGCGGAGTCACCTAGTGCAG | 16400 fluorescence intensity (a.u.)

Given with tabs: part of the list above.
Sequence	binding signal
GGAAGAAGGCCGCCGACGCACAACAGAGGCGGCGGCGGGGCGGAGTCACCTAGTGCAG	3510 fluorescence intensity (a.u.)
TTGTGAAGTGATATATTACATATTAACCTATCATGTCAATCGGAGTCACCTAGTGCAG	38100 fluorescence intensity (a.u.)
CAACAATTTCCTCTCCTGTCAATGAACTTGTGTGCACGACCGGAGTCACCTAGTGCAG	21900 fluorescence intensity (a.u.)
TGTTGCACGGACATTTTGTCTATGACGCGGTAAGAGGGAGCGGAGTCACCTAGTGCAG	3260 fluorescence intensity (a.u.)
CCAGAATCCAAATGGGCCGTCTCTCTTCGTCTGGGCCCATCGGAGTCACCTAGTGCAG	4820 fluorescence intensity (a.u.)
TGGCTTGAAAGTCACACCGTGAGTCAGACGATCCGCGTCCCGGAGTCACCTAGTGCAG	8380 fluorescence intensity (a.u.)
TATGCATGACATCACAACGAAAGCTGGGACCTCGTCGATCCGGAGTCACCTAGTGCAG	3600 fluorescence intensity (a.u.)
TCGCTCTCTCCACATCGGTCGTGCGGTCGTGCCGCCATCACGGAGTCACCTAGTGCAG	3460 fluorescence intensity (a.u.)
CTGTCGTCACCATGACACGTCATCAGTCGTTAGGGTCGGCCGGAGTCACCTAGTGCAG	25600 fluorescence intensity (a.u.)

(list continues)

Sequence | binding signal
TGAACTAAGCCACATTTGTCACTTGTCAGCAGAGAGCCAGCGGAGTCACCTAGTGCAG | 3330 fluorescence intensity (a.u.)
AGGGACGTGGTCGTACGTGTCCGACGTCCCTGACGATTCACGGAGTCACCTAGTGCAG | 7050 fluorescence intensity (a.u.)
ACTACGTGCACTCGCGACATGATGTGTATGATGCTTAAAACGGAGTCACCTAGTGCAG | 20200 fluorescence intensity (a.u.)
GAGATTGGAAATGATCGAATTGTTCCGGCAGCGTGGCAGCCGGAGTCACCTAGTGCAG | 3360 fluorescence intensity (a.u.)
ATTGAACCCGGGAATGCTGGATCCTCTGTAATCAGACTTGCGGAGTCACCTAGTGCAG | 3370 fluorescence intensity (a.u.)
GGAGGCAGCCACTTATCCCTCTCCTTTCCCTCCCAGATCCCGGAGTCACCTAGTGCAG | 15500 fluorescence intensity (a.u.)
ACCTTCAAATGCAATTTTACAATGGATTTACCTCAAGCTACGGAGTCACCTAGTGCAG | 19200 fluorescence intensity (a.u.)
CGCGGGGTGACGGCGATGGATGACGGCGCGCGGGCGGGGCCGGAGTCACCTAGTGCAG | 3960 fluorescence intensity (a.u.)
CTGCCACGTCTTAACTCGAGTATCTTCCCCTTCCCTTAGGCGGAGTCACCTAGTGCAG | 26700 fluorescence intensity (a.u.)
TTTAGCATTTGCTGTGTCACCTCTCCATAAAATTTGGTTGCGGAGTCACCTAGTGCAG | 8830 fluorescence intensity (a.u.)
CCGGCGGTACGGCCCCGTCATGCTCCTCCGCCTCGGCCATCGGAGTCACCTAGTGCAG | 3370 fluorescence intensity (a.u.)
CGGGAAGTGGACAGCGTGTTGCCTGCGTGGGCGGTGTTGTCGGAGTCACCTAGTGCAG | 4610 fluorescence intensity (a.u.)
GAGTAAAATATTCTGCAGTCGGCACTTTTGTTGTGTCATGCGGAGTCACCTAGTGCAG | 3360 fluorescence intensity (a.u.)
TCTGGGTATCCTCTGTTATGTCATCTTCACCTCCATTTGGCGGAGTCACCTAGTGCAG | 3720 fluorescence intensity (a.u.)
TTATAGATGGTGGTTTTGTTGATGTGGCAGTGTTGATTAGCGGAGTCACCTAGTGCAG | 11200 fluorescence intensity (a.u.)
ACGTGGATAATTAATACTACTACGTGTCTGCATATGCGTACGGAGTCACCTAGTGCAG | 3420 fluorescence intensity (a.u.)
CTGAAAAGGAATCGGCCTACGTCTGACGCATGCATTCTGGCGGAGTCACCTAGTGCAG | 7560 fluorescence intensity (a.u.)
GGGTGGACCACGTGTCGTTGCGTCTTAGTTACCCTTCTACCGGAGTCACCTAGTGCAG | 7980 fluorescence intensity (a.u.)
GCTGCCGCCGTCGCTGTCCCTGCCACCTCAAGGACTCGCCCGGAGTCACCTAGTGCAG | 4830 fluorescence intensity (a.u.)
CCATATGCTGCTCGCATCCACGTATAAGTACACCTCTCCCCGGAGTCACCTAGTGCAG | 5290 fluorescence intensity (a.u.)
TGCAACCATGGTCGTCAGCAATGGATATGGCATAATGCTGCGGAGTCACCTAGTGCAG | 5250 fluorescence intensity (a.u.)
